# Test results as given in the supplement of paper PMC12542422.
# Structures can show the parent of a compound that is named as a salt. ± gives the standard deviation of the averaged measurements. The list shows a part of the results. These are raw signals, not scaled to a control.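 Across three biological replicates, HeLa cells were imaged for ribosome assembly using ENP1 staining (export block present or absent) or inducible tagged ribosomal protein reporters. Machine learning classified each cell's signal localization relative to DMSO controls. Hits exceeded the DMSO false-positive mean by five standard deviations and were then visually confirmed.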
# How the values were obtained:
# [1] = test system: HeLa K (ENP1 immunofluorescence, +LMB); assay: fraction of cells with nucleolar or nucleolar/nucleoplasmic ENP1 signal (MainHitrate); higher = more cells with nucleolar/nuclear readout signal (for ENP1 -LMB: less RNAPI inhibition; for +LMB ENP1 and RP reporters: stronger nuclear/nucleolar retention, i.e. ribosome biogenesis defect); details: concentration: 1 µM; treatment time: 6 h; ENP1 +LMB; leptomycin B: 20 nM, last 1.5 h
# [2] = test system: HeLa K (ENP1 immunofluorescence, no LMB); assay: as above; details: concentration: 1 µM; treatment time: 6 h; ENP1 -LMB; leptomycin B: none
# HeLa RPS2-YFP reporter = assay: fraction of reporter-positive cells with nuclear (nucleolar or nucleolar/nucleoplasmic) RPS2-YFP (MainHitrate); higher = more cells with nucleolar/nuclear readout signal (for ENP1 -LMB: less RNAPI inhibition; for +LMB ENP1 and RP reporters: stronger nuclear/nucleolar retention, i.e. ribosome biogenesis defect); details: concentration: 1 µM; treatment time: 6 h
# HeLa RPL29-GFP reporter = assay: fraction of reporter-positive cells with nuclear (nucleolar or nucleolar/nucleoplasmic) RPL29-GFP (MainHitrate); higher = more cells with nucleolar/nuclear readout signal (for ENP1 -LMB: less RNAPI inhibition; for +LMB ENP1 and RP reporters: stronger nuclear/nucleolar retention, i.e. ribosome biogenesis defect); details: concentration: 1 µM; treatment time: 6 h
SMILES,fraction [1],fraction [2],fraction of reporter-positive cells with nuclear (HeLa RPS2-YFP reporter),fraction of reporter-positive cells with nuclear (HeLa RPL29-GFP reporter)
Cc1onc(-c2c(Cl)cccc2Cl)c1C(=O)N[C@@H]1C(=O)N2[C@@H]1SC(C)(C)[C@@H]2C(=O)O [Dicloxacillin Sodium],0.107 ± 0.17,0.986 ± 0.024,0.144 ± 0.094,0.247 ± 0.073
C/C(O)=C(\C#N)C(=O)Nc1ccc(C(F)(F)F)cc1 [Teriflunomide],0.0488 ± 0.059,0.988 ± 0.021,0.0821 ± 0.056,0.259 ± 0.088
NC(=O)c1ncn([C@@H]2O[C@H](CO)[C@@H](O)[C@H]2O)n1 [Ribavirin (Copegus)],0.108 ± 0.14,0.991 ± 0.015,0.116 ± 0.092,0.238 ± 0.062
CCOC(CN1CCN(CC(C)C(=O)c2ccccc2)CC1)c1ccccc1 (stereo unspecified) [Eprazinone 2HCl],0.0498 ± 0.059,0.984 ± 0.028,0.119 ± 0.099,0.227 ± 0.054
C#C[C@]1(OC(C)=O)CC[C@H]2[C@@H]3CCC4=C[C@@H](OC(C)=O)CC[C@@H]4[C@H]3CC[C@@]21C [Ethynodiol diacetate],0.147 ± 0.21,0.98 ± 0.034,0.118 ± 0.093,0.205 ± 0.079
CCCC(CCC)C(=O)O [Valproic acid sodium salt (Sodium valproate)],0.0948 ± 0.065,0.9976 ± 0.0041,0.12 ± 0.067,0.2 ± 0.069
CNS(=O)(=O)Cc1ccc2[nH]cc(CCN(C)C)c2c1 [Sumatriptan succinate],0.121 ± 0.13,0.9983 ± 0.0029,0.124 ± 0.075,0.206 ± 0.071
COc1c(C)c2c(c(O)c1C/C=C(\C)CCC(=O)O)C(=O)OC2 [Mycophenolic (Mycophenolate)],0.0384 ± 0.056,0.678 ± 0.56,0.0852 ± 0.072,0.387 ± 0.19
COc1cc(C(=O)NS(=O)(=O)c2ccccc2C)ccc1Cc1cn(C)c2ccc(NC(=O)OC3CCCC3)cc12 [Zafirlukast (Accolate)],0.0838 ± 0.078,0.9984 ± 0.0027,0.115 ± 0.076,0.198 ± 0.074
